Literature values, collected in US20220202756A1, “GENETIC VARIANTS ASSOCIATED WITH RESPONSE TO TREATMENT OF NEUROLOGICAL DISORDERS” (VISTAGEN THERAPEUTICS, INC., priority 2019, published 2022).
For at least one compound, name, drawing or mass did not settle the structure.

Conditions: cited from earlier work

## O=C(O)c1cc(O)c2ccc(Cl)cc2n1 [7-chlorokynurenic acid, reference compound]
  prevention of excitotoxic and ischemic neuronal damage: prevent excitotoxic and ischemic neuronal damage
